# Laboratory results published in publication PMC11971462, “Generation and validation of a novel multitarget small molecule in glioblastoma” (Cell Death & Disease, 2025).
# System: GNS166 cells
# Conditions: GNS166, 5 µM, 48 h; fold-change > 4, p < 0.01
smiles,measurement,value
C#CCN(Cc1cc2cc(OCCCN3CCCCC3)ccc2n1S(=O)(=O)c1ccccc1)C(=O)CCCCCCC(=O)NO [DDI199],Number of downregulated genes (RNAseq),204
same,Number of upregulated genes (RNAseq),952
